In PMC9159911:

Biological target: outer membrane protein A (OmpA) of Aeromonas veronii (A. veronii)
Assay: two-hybrid; bacterial two-hybrid in E. coli XL1-Blue MRF' with pBT and pTRG derivatives; SmpB with OmpA (Supplementary Figure 2)

B1: small protein B (SmpB) of Aeromonas veronii (protein, UniProt A0A0T6N165 1-162)
chain: MSKKNSKNKAGSSTIALNRTARHEYFIEEKIEAGLSLQGWEVKSLRAGKANISEAYVIFRDGEAYLFGSSFLPLQAASSHVVCDPTRTRKLLLSRRELDKLESLIARQGYTIVPLALYWKQCWVKVEIGLVKGKKEHDKREDTKAREWDREKARIMKNKHRG
Question: For B1, which binding is on record?
Answer: The binding was “no binding”.

Results are given in words; binding and its absence hold for the method and conditions named.
